Consider one substance from publication PMC12208539.

Protein sequences, listed by entry. Tags and fused reporters are not part of them.
UniProt Q14258: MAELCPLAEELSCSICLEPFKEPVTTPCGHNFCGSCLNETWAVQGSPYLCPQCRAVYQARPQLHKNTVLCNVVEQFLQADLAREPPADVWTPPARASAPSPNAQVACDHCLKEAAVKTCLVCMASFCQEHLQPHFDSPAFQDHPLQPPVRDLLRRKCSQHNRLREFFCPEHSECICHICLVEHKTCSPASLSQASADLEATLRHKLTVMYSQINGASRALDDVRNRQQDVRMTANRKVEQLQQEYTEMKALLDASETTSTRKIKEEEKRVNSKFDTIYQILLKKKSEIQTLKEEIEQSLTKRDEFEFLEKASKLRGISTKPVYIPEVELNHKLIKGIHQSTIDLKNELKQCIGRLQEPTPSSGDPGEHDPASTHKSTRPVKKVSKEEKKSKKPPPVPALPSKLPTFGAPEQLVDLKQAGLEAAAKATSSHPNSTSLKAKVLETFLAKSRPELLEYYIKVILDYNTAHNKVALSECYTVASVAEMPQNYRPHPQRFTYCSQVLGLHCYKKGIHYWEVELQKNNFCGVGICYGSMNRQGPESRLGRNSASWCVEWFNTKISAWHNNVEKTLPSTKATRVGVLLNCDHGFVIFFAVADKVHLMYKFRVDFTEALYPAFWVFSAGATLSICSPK

The assay concerns the target T1, BirA-fusion PLEK2 (UniProt Q9NYT0).
T1 sequence: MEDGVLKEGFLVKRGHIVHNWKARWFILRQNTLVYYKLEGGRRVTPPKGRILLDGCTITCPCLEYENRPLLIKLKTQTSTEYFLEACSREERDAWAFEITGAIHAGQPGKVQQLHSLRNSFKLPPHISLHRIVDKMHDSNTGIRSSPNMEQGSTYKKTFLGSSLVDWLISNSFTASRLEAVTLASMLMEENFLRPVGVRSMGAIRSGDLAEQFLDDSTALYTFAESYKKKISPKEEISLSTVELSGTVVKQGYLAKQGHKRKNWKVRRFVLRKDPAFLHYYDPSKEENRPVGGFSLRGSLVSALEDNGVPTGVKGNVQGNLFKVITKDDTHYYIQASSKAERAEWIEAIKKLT
Kind of assay: proximity labelling; biotin conjugation by BirA-fusion PLEK2 in HEK293T cells, streptavidin pulldown of the lysate, Western blotting.

Results are given in words; binding and its absence hold for the method and conditions named. Binding seen in cells or lysates may run through a third protein. These calls come from enrichment with a bait or labelling near it, and not all partners need be listed. No binding means not detected with the bait. Where a sequence is shown, tags or fusion partners need not be part of it.

Take “TRIM25 in HEK293T lysate (from UniProt Q14258 1-630)”: the binding result is listed as “no binding”.
